This passage reports binding results from paper doi:10.1101/2020.01.27.921122.

Amino acid sequences for entries named in this document (tags omitted). A change or cut given only in a name is not applied to a line headed by its entry. Residues count along the entry.
UniProt O14727: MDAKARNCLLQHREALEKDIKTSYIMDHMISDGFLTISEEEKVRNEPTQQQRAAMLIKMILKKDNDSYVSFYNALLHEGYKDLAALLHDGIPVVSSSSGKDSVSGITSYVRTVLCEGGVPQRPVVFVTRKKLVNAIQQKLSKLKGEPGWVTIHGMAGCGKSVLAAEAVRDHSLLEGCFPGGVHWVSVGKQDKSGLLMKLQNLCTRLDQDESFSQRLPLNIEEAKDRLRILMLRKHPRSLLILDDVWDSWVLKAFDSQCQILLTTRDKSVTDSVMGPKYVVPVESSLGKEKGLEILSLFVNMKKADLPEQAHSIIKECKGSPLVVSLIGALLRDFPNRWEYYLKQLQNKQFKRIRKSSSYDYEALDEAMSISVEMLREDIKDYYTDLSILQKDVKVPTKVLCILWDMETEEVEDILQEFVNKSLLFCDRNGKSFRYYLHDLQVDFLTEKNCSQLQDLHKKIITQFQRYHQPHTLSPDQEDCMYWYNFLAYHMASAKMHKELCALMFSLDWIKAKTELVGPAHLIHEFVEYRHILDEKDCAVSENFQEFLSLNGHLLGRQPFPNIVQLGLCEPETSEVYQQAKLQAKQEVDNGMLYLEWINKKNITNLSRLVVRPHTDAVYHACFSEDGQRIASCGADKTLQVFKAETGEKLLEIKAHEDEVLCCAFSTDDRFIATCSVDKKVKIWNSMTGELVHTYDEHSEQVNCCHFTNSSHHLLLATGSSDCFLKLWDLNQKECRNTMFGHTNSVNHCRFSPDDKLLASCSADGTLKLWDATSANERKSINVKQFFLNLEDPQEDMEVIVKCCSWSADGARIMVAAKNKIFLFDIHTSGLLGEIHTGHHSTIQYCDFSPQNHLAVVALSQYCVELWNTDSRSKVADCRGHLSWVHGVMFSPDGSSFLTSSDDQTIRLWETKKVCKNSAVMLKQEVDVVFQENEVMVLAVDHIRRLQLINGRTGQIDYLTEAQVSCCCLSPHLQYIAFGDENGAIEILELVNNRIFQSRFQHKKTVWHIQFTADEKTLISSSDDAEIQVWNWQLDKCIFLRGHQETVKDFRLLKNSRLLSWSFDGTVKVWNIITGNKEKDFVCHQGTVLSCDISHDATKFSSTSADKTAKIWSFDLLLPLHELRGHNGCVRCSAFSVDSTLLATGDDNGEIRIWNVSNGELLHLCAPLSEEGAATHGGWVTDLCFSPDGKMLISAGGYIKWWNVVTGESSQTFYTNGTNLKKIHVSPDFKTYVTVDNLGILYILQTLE
Apaf-1(1-591AA)-His: residues 1-591 of O14727
Apaf-1(1-105)-His: residues 1-105 of O14727

Assay [1] concerns the target T1, pro-caspase-11 (mouse (endogenous in BMDMs and liver)) (UniProt P70343).
T1 sequence: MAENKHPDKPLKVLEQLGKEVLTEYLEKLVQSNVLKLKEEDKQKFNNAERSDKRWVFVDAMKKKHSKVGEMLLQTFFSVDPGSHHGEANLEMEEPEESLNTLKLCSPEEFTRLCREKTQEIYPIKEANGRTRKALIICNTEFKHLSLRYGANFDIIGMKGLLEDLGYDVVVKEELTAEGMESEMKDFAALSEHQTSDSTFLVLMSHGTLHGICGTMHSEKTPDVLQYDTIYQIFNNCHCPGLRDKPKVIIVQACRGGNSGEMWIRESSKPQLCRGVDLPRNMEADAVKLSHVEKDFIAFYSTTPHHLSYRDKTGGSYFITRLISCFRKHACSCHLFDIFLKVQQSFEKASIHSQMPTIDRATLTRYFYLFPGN
Nature of the assay: co-IP.

Assay [2] has as its target full length (Fl)-Apaf-1-His (human) (UniProt O14727). Nature of the assay: pull-down.
The target in assay [3] is Apaf-1(1-591AA)-His (human) (UniProt O14727). Nature of the assay: pull-down.
The target in assay [4] is Apaf-1(1-105)-His (human) (UniProt O14727). Nature of the assay: pull-down.

These are yes or no findings as the source states them, for the method shown. Binding seen in cells or lysates may run through a third protein. Some entries that bind do so weakly or less than the wild type. For some assays here: Where a sequence is shown, tags or fusion partners need not be part of it.

B1: full length GSDMD (protein, UniProt Q9D8T2 1-487)
chain: MPSAFEKVVKNVIKEVSGSRGDLIPVDSLRNSTSFRPYCLLNRKFSSSRFWKPRYSCVNLSIKDILEPSAPEPEPECFGSFKVSDVVDGNIQGRVMLSGMGEGKISGGAAVSDSSSASMNVCILRVTQKTWETMQHERHLQQPENKILQQLRSRGDDLFVVTEVLQTKEEVQITEVHSQEGSGQFTLPGALCLKGEGKGHQSRKKMVTIPAGSILAFRVAQLLIGSKWDILLVSDEKQRTFEPSSGDRKAVGQRHHGLNVLAALCSIGKQLSLLSDGIDEEELIEAADFQGLYAEVKACSSELESLEMELRQQILVNIGKILQDQPSMEALEASLGQGLCSGGQVEPLDGPAGCILECLVLDSGELVPELAAPIFYLLGALAVLSETQQQLLAKALETTVLSKQLELVKHVLEQSTPWQEQSSVSLPTVLLGDCWDEKNPTWVLLEECGLRLQVESPQVHWEPTSLIPTSALYASLFLLSSLGQKPC
For B1, in assay [1], the binding entry was “binds”.

B2: endogenous pro-caspase-4 (protein, UniProt P49662 1-377)
chain: MAEGNHRKKPLKVLESLGKDFLTGVLDNLVEQNVLNWKEEEKKKYYDAKTEDKVRVMADSMQEKQRMAGQMLLQTFFNIDQISPNKKAHPNMEAGPPESGESTDALKLCPHEEFLRLCKERAEEIYPIKERNNRTRLALIICNTEFDHLPPRNGADFDITGMKELLEGLDYSVDVEENLTARDMESALRAFATRPEHKSSDSTFLVLMSHGILEGICGTVHDEKKPDVLLYDTIFQIFNNRNCLSLKDKPKVIIVQACRGANRGELWVRDSPASLEVASSQSSENLEEDAVYKTHVEKDFIAFCSSTPHNVSWRDSTMGSIFITQLITCFQKYSWCCHLEEVFRKVQQSFETPRAKAQMPTIERLSMTRYFYLFPGN
For B2, in assay [2], the binding result was “binds”.

B3: caspase-4-HA (protein, UniProt P49662 1-377)
chain: MAEGNHRKKPLKVLESLGKDFLTGVLDNLVEQNVLNWKEEEKKKYYDAKTEDKVRVMADSMQEKQRMAGQMLLQTFFNIDQISPNKKAHPNMEAGPPESGESTDALKLCPHEEFLRLCKERAEEIYPIKERNNRTRLALIICNTEFDHLPPRNGADFDITGMKELLEGLDYSVDVEENLTARDMESALRAFATRPEHKSSDSTFLVLMSHGILEGICGTVHDEKKPDVLLYDTIFQIFNNRNCLSLKDKPKVIIVQACRGANRGELWVRDSPASLEVASSQSSENLEEDAVYKTHVEKDFIAFCSSTPHNVSWRDSTMGSIFITQLITCFQKYSWCCHLEEVFRKVQQSFETPRAKAQMPTIERLSMTRYFYLFPGN
Turning to B3, the binding result in assay [3], in assay [4] and in assay [2] was “binds” each time.
